The text below walks through data of the supplement of paper PMC4862054.

Holding throughout (test): normalised response (% of control), CellTox Green; higher = less cell death (100 = DMSO, 0 = benzethonium chloride kill control)
Details in all cases: incubation time: 72 h

In assay [1] the test system is HDQ-P1. The protocol:
(§1)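 DSRT, 72 h incubation, CellTox Green / CellTiter-Glo readout. Signal is normalised to DMSO and benzethonium chloride controls. Value is the normalised response at dose 2.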

For assay [2], the system named is BT-549. The protocol:
as §1

The test system of assay [3] is MFM-223. The protocol: as §1
Assay [4] deals with CAL-51. The protocol: as §1
For assay [5], the system named is CAL-85-1. The protocol:
as §1

Assay [6] relates to CAL-120. The protocol: as §1
In assay [7] the test system is HCC1599. The protocol: as §1
The test system of assay [8] is CAL-148. The protocol:
as §1

Assay [9] has as its system MDA-MB-231. The protocol: as §1
Assay [10] deals with MDA-MB-436. The protocol: as §1
The test system of assay [11] is MDA-MB-453. The protocol:
as §1

Assay [12] relates to DU-4475. The protocol:
as §1

Assay [13] concerns Hs578T. The protocol: as §1
Assay [14] concerns BT-474. The protocol:
as §1

A further assay concerns HCC1937. The protocol: as §1
For assay [15], the system named is MCF-10A. The protocol:
as §1

In assay [16] the test system is HCC1143. The protocol: as §1
The subject of assay [17] is HDQ-P1. The protocol:
(§2)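 DSRT, 72 h incubation, CellTox Green / CellTiter-Glo readout. Signal is normalised to DMSO and benzethonium chloride controls. Value is the normalised response at the lowest tested concentration.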
The source holds these as a separate data set.

Assay [18] deals with BT-549. The protocol: as §2
This is another data set of the same source.

Assay [19] relates to MFM-223. The protocol: as §2
The source holds these as a separate data set.

For assay [20], the system named is CAL-51. The protocol: as §2
This is another data set of the same source.

For assay [21], the system named is CAL-85-1. The protocol:
as §2
This is another data set of the same source.

Assay [22] has as its system CAL-120. The protocol: as §2
This is another data set of the same source.

For assay [23], the system named is HCC1599. The protocol: as §2
The source holds these as a separate data set.

The test system of assay [24] is CAL-148. The protocol:
as §2
The source holds these as a separate data set.

In the next assay the test system is MDA-MB-468. The protocol: as §2
For assay [25], the system named is MDA-MB-231. The protocol:
as §2
This is another data set of the same source.

Assay [26] has as its system MDA-MB-436. The protocol:
as §2
This is another data set of the same source.

Assay [27] relates to MDA-MB-453. The protocol:
as §2
The source holds these as a separate data set.

The subject of assay [28] is DU-4475. The protocol: as §2
This is another data set of the same source.

For assay [29], the system named is BT-474. The protocol:
as §2
The source holds these as a separate data set.

Assay [30] has as its system MCF-10A. The protocol:
as §2
The source holds these as a separate data set.

Assay [31] has as its system HCC1143. The protocol:
as §2
The source holds these as a separate data set.

For assay [32], the system named is Hs578T. The protocol:
as §2
The source holds these as a separate data set.

Most entries show no effect beyond the scatter of the controls.

As to `C[C@]12CC[C@H](O)CC1=CC[C@@H]1[C@@H]2CC[C@]2(C)C(c3cccnc3)=CC[C@@H]12` [Abiraterone] (5 nM), the normalised response in the assay on HDQ-P1 [1] was determined as 125%; in the assay on BT-549 [2], 109%; in the assay with MFM-223 [3] it was 81.9%; in the assay on CAL-51 [4], 109%; in the assay with CAL-85-1 [5] it was 95.7%; in the assay on CAL-120 [6] it was 106%. Further, the normalised response in the assay with HCC1599 [7] was determined as 123%; with CAL-148 [8], 105%; in the assay on MDA-MB-231 [9], 110%; with MDA-MB-436 [10] it was 110%; in the assay with MDA-MB-453 [11], 106%; in the assay with DU-4475 [12], 112%. The normalised response stood at 99.8% in the assay on Hs578T [13]; 101% in the assay on BT-474 [14]; 103% in the assay on HCC1937; 110% in the assay on MCF-10A [15]; 127% in the assay on HCC1143 [16].
Regarding `CCNC(=O)CCC/C=C\C[C@@H]1[C@@H](/C=C/[C@@H](O)CCc2ccccc2)[C@H](O)C[C@@H]1O` [Bimatoprost] (0.55 nM), the normalised response in the assay with HDQ-P1 [17] was found to be 98.6%; with BT-549 [18], 83.7%; in the assay on MFM-223 [19], 67.5%; with CAL-51 [20], 109%; with CAL-85-1 [21], 104%; in the assay on CAL-120 [22], 103%. Further, the normalised response in the assay on HCC1599 [23] is 98%; in the assay with CAL-148 [24], 99.8%; with MDA-MB-468 it was 73.4%; with MDA-MB-231 [25], 98.8%; in the assay with MDA-MB-436 [26], 85.9%; in the assay with MDA-MB-453 [27], 100%. Moreover, the normalised response in the assay on DU-4475 [28] is 97.3%; in the assay with BT-474 [29], 97.5%; in the assay with MCF-10A [30], 97.3%; in the assay on HCC1143 [31] it was 92.4%.
Turning to `CCOC(=O)CCNc1cc(N2CCc3ccccc3CC2)nc(-c2ccccn2)n1` [GSK-J4] (10 nM), the normalised response with HDQ-P1 [17] was determined as 99.3%; in the assay on BT-549 [18], 89.2%; in the assay on MFM-223 [19], 105%; with CAL-51 [20], 91.3%; in the assay on CAL-85-1 [21], 106%; in the assay on CAL-120 [22], 96.8%. For the same compound, the normalised response amounted to 102% with HCC1599 [23]; 72.4% with MDA-MB-468; 116% in the assay on MDA-MB-231 [25]; 89.3% in the assay with MDA-MB-436 [26]; 99.3% in the assay with MDA-MB-453 [27]; 104% in the assay on DU-4475 [28]. The normalised response in the assay on Hs578T [32] was 106%; with BT-474 [29], 98.4%; with MCF-10A [30] it was 104%; in the assay on HCC1143 [31], 107%.
Regarding `CCOC(=O)CCNc1cc(N2CCc3ccccc3CC2)nc(-c2ccccn2)n1` [GSK-J4] (100 nM), the normalised response in the assay on HDQ-P1 [1] is 117%; in the assay on BT-549 [2] it was 95.9%; in the assay with MFM-223 [3], 99.7%; in the assay on CAL-51 [4], 106%; with CAL-85-1 [5] it was 100%; in the assay with CAL-120 [6], 101%. Also, the normalised response in the assay with HCC1599 [7] stood at 99.9%; in the assay on CAL-148 [8], 103%; in the assay on MDA-MB-231 [9], 107%; with MDA-MB-436 [10] it was 87.4%; with DU-4475 [12], 93.7%; with Hs578T [13], 125%. In addition, the normalised response in the assay with BT-474 [14] was 103%; in the assay on HCC1937, 95%; in the assay on MCF-10A [15], 79%; in the assay with HCC1143 [16], 110%.
With `Cc1cccc(-c2nn3c(c2-c2ccnc4ccc(C(N)=O)cc24)CCC3)n1` [Galunisertib] (0.1 nM), the normalised response stood at 89.5% in the assay on HDQ-P1 [17]; 94.1% in the assay on BT-549 [18]; 104% in the assay on MFM-223 [19]; 109% with CAL-51 [20]; 95.6% in the assay on CAL-85-1 [21]; 98.3% in the assay with CAL-120 [22]. Besides, the normalised response came to 107% in the assay with HCC1599 [23]; 79% in the assay with CAL-148 [24]; 97.6% in the assay on MDA-MB-468; 106% with MDA-MB-231 [25]; 102% with MDA-MB-436 [26]; 114% with MDA-MB-453 [27]. For the same compound, the normalised response in the assay on DU-4475 [28] came to 107%; in the assay with Hs578T [32], 71.2%; in the assay with BT-474 [29], 101%; in the assay on MCF-10A [30], 106%; in the assay with HCC1143 [31], 114%.
For the compound `CC1(C)NC(=O)N(c2ccc([N+](=O)[O-])c(C(F)(F)F)c2)C1=O` [Nilutamide] (10 nM), the normalised response with HDQ-P1 [1] came to 91.7%; in the assay with BT-549 [2], 90.7%; with MFM-223 [3], 74.5%; with CAL-51 [4], 116%; in the assay on CAL-85-1 [5], 96.3%; in the assay on CAL-120 [6], 104%. Also, the normalised response with HCC1599 [7] turned out to be 113%; in the assay on CAL-148 [8], 105%; in the assay on MDA-MB-231 [9], 112%; in the assay with MDA-MB-436 [10] it was 110%; with MDA-MB-453 [11] it was 103%; with DU-4475 [12], 106%. Moreover, the normalised response with Hs578T [13] turned out to be 110%; with BT-474 [14], 100%; in the assay on HCC1937, 103%; with MCF-10A [15], 103%; in the assay with HCC1143 [16] it was 114%.
On to `CNC(=O)c1ccc(N2C(=S)N(c3ccc(C#N)c(C(F)(F)F)c3)C(=O)C23CCC3)cc1F` [RD162] (10 nM), for which the normalised response turned out to be 110% with HDQ-P1 [1]; 102% in the assay with BT-549 [2]; 93.4% in the assay with MFM-223 [3]; 103% in the assay on CAL-51 [4]; 107% with CAL-85-1 [5]; 102% in the assay with CAL-120 [6]. The normalised response in the assay on HCC1599 [7] came to 104%; in the assay on CAL-148 [8], 102%; with MDA-MB-231 [9], 111%; with MDA-MB-436 [10], 103%; in the assay on MDA-MB-453 [11] it was 90.1%; in the assay on DU-4475 [12], 100%. Also, the normalised response with Hs578T [13] is 127%; in the assay with BT-474 [14], 102%; in the assay on HCC1937 it was 107%; in the assay with MCF-10A [15], 80.3%; in the assay with HCC1143 [16] it was 112%.
